{
  "sequences": {"note": "Chains of the proteins cited; added tags and fusions are not shown. Lines headed by an entry give the natural chain unless they say otherwise; changes in a name come on top.", "UniProt Q8BHN1": "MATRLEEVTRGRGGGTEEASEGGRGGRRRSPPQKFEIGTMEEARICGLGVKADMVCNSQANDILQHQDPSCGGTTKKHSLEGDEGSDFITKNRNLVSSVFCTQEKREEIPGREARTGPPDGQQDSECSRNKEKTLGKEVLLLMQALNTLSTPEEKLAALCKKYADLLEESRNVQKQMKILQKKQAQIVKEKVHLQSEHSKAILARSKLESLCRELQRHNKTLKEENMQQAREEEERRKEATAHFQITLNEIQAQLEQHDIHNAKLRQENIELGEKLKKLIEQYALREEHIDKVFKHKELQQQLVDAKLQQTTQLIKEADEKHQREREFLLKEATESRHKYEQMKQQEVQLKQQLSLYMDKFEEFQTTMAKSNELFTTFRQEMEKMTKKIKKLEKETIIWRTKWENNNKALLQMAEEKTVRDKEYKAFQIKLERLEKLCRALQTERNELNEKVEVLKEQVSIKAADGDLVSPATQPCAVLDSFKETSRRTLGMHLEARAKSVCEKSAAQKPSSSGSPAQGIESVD", "UniProt Q8C166": "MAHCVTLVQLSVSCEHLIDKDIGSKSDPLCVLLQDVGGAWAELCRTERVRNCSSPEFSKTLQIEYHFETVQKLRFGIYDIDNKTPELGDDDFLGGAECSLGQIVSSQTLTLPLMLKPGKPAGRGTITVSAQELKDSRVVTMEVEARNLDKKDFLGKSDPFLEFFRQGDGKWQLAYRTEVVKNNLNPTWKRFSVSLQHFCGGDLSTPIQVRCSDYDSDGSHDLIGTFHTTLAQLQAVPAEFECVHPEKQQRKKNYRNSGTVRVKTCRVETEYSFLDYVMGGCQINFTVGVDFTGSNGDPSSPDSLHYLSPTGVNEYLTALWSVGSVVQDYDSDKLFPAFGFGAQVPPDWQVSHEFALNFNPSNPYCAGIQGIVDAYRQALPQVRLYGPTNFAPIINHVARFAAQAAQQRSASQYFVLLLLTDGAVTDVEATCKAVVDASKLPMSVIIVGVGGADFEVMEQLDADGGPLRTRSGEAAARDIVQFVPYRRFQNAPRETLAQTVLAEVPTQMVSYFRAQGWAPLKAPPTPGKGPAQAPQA", "UniProt Q8BVF2": "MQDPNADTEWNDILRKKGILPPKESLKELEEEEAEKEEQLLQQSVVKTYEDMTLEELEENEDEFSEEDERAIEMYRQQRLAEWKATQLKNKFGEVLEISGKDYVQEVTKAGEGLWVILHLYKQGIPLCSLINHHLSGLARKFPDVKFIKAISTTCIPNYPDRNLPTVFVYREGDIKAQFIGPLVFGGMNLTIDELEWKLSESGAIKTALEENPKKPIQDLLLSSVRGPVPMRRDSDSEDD", "UniProt Q8BTY2": "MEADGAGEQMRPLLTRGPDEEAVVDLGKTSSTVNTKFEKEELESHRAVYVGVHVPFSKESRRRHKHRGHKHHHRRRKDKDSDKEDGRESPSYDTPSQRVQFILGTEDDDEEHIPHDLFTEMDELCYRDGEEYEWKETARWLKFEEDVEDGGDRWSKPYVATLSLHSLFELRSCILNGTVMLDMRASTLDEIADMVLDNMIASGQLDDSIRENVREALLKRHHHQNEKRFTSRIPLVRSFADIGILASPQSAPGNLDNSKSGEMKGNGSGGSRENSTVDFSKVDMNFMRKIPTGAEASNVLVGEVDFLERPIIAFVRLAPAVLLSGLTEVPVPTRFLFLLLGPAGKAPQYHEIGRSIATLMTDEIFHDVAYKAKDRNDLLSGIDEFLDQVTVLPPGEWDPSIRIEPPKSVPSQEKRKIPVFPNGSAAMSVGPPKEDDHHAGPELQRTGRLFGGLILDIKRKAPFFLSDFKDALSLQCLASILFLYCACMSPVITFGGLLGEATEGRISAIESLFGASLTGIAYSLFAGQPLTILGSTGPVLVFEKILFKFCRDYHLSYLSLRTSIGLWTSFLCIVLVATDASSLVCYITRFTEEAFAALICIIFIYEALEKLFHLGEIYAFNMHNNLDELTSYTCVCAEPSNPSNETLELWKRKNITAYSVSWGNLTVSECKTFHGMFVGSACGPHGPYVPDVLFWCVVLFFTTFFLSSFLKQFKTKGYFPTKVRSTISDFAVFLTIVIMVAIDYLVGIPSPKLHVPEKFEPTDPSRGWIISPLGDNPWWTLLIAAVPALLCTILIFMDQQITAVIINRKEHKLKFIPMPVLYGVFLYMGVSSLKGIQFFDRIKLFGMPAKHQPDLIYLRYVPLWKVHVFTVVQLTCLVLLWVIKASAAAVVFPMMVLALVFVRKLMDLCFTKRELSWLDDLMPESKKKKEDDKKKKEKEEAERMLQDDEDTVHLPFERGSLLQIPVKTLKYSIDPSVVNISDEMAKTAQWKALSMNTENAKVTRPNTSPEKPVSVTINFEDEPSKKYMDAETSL", "UniProt Q8BYK6": "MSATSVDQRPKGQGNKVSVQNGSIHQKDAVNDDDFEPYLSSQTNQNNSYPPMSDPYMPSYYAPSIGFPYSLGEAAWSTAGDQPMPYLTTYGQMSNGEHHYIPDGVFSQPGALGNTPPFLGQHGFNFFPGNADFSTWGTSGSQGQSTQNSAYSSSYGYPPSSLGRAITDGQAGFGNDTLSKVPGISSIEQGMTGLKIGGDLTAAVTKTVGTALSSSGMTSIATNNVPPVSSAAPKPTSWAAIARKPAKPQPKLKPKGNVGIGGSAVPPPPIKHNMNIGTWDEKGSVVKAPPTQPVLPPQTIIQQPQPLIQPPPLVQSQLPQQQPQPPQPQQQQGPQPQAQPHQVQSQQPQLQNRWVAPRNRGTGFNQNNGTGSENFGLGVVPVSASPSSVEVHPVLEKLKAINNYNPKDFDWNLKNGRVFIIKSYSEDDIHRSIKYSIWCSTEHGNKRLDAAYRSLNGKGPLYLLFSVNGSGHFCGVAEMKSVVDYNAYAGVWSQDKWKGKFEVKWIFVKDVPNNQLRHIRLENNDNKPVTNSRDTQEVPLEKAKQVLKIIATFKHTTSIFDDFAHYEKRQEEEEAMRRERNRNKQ", "UniProt Q8BVY0": "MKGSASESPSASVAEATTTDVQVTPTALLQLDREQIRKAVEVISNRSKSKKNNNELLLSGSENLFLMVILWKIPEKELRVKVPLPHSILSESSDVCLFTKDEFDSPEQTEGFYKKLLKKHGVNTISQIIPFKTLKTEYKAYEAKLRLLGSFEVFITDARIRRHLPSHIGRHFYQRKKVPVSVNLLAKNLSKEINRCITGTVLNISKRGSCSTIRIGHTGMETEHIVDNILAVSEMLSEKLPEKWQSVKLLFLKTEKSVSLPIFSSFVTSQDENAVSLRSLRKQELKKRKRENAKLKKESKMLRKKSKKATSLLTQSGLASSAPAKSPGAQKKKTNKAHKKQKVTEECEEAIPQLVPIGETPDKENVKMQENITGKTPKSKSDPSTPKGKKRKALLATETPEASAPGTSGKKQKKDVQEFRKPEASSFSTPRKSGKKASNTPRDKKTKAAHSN", "UniProt Q8BH00": "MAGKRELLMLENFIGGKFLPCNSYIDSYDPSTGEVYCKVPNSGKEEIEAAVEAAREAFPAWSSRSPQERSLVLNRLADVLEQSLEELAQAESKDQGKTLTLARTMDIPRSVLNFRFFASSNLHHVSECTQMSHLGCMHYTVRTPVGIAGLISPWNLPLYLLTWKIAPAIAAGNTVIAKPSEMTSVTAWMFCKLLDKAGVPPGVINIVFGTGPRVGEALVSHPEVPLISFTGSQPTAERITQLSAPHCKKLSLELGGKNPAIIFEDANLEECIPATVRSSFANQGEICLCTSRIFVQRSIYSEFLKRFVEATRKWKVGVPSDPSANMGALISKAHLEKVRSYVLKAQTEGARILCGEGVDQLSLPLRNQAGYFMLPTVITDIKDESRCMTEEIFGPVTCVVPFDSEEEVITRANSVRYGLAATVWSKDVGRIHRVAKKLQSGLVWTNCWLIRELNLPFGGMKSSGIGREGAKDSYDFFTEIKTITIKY", "UniProt Q8BJU0": "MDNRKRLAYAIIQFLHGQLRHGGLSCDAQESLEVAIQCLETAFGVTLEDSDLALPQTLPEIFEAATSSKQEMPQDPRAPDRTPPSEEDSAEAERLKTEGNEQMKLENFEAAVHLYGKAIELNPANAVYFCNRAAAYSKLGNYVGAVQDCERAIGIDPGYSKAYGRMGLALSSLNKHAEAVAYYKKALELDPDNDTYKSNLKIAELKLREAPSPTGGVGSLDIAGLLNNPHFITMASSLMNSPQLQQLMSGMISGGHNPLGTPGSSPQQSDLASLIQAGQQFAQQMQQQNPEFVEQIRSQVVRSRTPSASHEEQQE", "UniProt Q8C7H1": "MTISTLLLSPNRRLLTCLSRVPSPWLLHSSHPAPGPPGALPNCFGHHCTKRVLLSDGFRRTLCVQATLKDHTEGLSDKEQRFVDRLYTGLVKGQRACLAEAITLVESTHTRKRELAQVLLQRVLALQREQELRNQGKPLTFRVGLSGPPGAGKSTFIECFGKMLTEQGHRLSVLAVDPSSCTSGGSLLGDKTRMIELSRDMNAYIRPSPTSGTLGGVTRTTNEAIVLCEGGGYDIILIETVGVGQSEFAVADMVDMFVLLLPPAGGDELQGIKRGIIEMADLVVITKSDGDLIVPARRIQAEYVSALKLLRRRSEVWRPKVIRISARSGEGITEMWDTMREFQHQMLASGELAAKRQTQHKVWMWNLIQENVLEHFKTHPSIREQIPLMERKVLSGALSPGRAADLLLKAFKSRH", "UniProt Q8C0J2": "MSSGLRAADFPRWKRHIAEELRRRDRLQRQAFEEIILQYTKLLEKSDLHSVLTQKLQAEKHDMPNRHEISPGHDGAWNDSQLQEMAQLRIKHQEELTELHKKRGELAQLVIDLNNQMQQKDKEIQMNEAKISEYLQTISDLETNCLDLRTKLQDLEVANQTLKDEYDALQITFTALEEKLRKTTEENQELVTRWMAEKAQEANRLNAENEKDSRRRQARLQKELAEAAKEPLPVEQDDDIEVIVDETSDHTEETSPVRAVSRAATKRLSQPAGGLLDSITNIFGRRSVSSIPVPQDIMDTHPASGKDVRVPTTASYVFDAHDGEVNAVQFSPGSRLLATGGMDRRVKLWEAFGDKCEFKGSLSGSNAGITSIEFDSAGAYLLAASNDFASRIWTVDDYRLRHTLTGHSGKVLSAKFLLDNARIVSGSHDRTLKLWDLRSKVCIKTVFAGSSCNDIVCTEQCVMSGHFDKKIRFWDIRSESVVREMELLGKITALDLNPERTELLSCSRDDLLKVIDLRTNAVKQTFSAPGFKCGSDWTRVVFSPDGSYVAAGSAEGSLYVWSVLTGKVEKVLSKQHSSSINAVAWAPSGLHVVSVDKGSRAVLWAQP", "UniProt Q8C0I1": "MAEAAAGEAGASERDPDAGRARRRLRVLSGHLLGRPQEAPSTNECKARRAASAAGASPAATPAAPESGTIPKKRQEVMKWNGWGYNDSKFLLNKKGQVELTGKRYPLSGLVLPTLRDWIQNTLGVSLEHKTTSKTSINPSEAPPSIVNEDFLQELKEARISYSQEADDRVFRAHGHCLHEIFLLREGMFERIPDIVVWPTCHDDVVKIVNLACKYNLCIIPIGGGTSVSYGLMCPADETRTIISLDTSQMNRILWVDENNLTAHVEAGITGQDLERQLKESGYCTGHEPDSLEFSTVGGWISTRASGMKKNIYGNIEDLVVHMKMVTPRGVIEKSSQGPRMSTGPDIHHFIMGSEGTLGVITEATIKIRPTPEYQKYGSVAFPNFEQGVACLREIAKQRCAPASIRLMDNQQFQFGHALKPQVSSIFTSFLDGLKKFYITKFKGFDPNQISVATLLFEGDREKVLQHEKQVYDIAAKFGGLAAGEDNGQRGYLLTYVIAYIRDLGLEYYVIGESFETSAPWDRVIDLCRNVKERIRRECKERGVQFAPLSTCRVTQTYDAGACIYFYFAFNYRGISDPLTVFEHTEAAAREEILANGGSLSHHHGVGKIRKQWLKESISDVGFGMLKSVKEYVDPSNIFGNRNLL", "UniProt Q8BLN5": "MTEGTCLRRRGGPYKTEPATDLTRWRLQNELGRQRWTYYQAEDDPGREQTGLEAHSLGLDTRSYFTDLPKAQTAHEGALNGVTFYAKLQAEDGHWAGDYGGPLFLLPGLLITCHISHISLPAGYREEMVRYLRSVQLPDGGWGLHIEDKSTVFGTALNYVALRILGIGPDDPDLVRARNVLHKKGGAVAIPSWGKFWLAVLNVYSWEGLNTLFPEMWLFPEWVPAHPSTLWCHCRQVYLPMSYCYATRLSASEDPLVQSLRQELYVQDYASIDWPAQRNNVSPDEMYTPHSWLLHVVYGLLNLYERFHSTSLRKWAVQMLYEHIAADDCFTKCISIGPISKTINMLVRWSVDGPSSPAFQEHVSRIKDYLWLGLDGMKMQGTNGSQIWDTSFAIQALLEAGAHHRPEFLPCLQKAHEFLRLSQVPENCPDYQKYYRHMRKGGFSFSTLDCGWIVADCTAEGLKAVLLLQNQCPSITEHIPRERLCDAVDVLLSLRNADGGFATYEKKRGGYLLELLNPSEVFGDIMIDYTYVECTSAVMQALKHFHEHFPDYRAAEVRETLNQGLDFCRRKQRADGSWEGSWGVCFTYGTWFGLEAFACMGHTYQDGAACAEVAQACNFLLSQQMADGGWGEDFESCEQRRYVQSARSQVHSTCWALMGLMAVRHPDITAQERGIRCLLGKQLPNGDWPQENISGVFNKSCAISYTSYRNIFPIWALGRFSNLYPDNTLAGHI"},
  "source": "the supplement of paper PMC12819154",
  "about": "“High-throughput peptide-centric local stability assay extends protein–ligand identification to membrane proteins, tissues and bacteria” (Nature Structural & Molecular Biology, 2025)",
  "note": "This is one part of the list. Most entries show no effect beyond the scatter of the controls.",
  "data": [
    {"compound": "CN[C@@H]1C[C@H]2O[C@@](C)([C@@H]1OC)n1c3ccccc3c3c4c(c5c6ccccc6n2c5c31)C(=O)NC4 [staurosporine]", "test": "log2 fold change of pooled soluble protein (PISA), ligand vs vehicle (log2 ratio); higher = more thermally stabilized", "settings": "ligand concentration: 20 uM; assay format: PISA pool 52.9/55.5/58.6 C", "values": [
      {"target": "UniProt Q8BP48", "log2 fold change of pooled soluble protein": 0.0168},
      {"target": "UniProt Q8BP56", "log2 fold change of pooled soluble protein": 0.0318},
      {"target": "UniProt Q8BHN1", "log2 fold change of pooled soluble protein": 0.138},
      {"target": "UniProt Q8BKX1", "log2 fold change of pooled soluble protein": -0.0254},
      {"target": "UniProt Q8CG64", "log2 fold change of pooled soluble protein": -0.301},
      {"target": "UniProt Q8BX09", "log2 fold change of pooled soluble protein": 0.0828},
      {"target": "UniProt Q8BL86", "log2 fold change of pooled soluble protein": 0.134},
      {"target": "UniProt Q8C142", "log2 fold change of pooled soluble protein": 0.217},
      {"target": "UniProt Q8BN82", "log2 fold change of pooled soluble protein": -0.218},
      {"target": "UniProt Q8BHC0", "log2 fold change of pooled soluble protein": 0.147},
      {"target": "UniProt Q8C166", "log2 fold change of pooled soluble protein": -0.0213},
      {"target": "UniProt Q8BVF2", "log2 fold change of pooled soluble protein": 0.115},
      {"target": "UniProt Q8BWF0", "log2 fold change of pooled soluble protein": 0.0305},
      {"target": "UniProt Q8BTZ7", "log2 fold change of pooled soluble protein": -0.096},
      {"target": "UniProt Q8BTY2", "log2 fold change of pooled soluble protein": 0.166},
      {"target": "UniProt Q8C5R2", "log2 fold change of pooled soluble protein": 0.0598},
      {"target": "UniProt Q8BYK6", "log2 fold change of pooled soluble protein": -0.00104},
      {"target": "UniProt Q8BHJ6", "log2 fold change of pooled soluble protein": 0.194},
      {"target": "UniProt Q8CGB6", "log2 fold change of pooled soluble protein": -0.0821},
      {"target": "UniProt Q8C9B9", "log2 fold change of pooled soluble protein": 0.0232},
      {"target": "UniProt Q8BH31", "log2 fold change of pooled soluble protein": 0.0566},
      {"target": "UniProt Q8BL66", "log2 fold change of pooled soluble protein": -0.0229},
      {"target": "UniProt Q8BWG8", "log2 fold change of pooled soluble protein": -0.178},
      {"target": "UniProt Q8BVY0", "log2 fold change of pooled soluble protein": -0.294},
      {"target": "UniProt Q8BH00", "log2 fold change of pooled soluble protein": 0.0363},
      {"target": "UniProt Q8BJU0", "log2 fold change of pooled soluble protein": 0.0619},
      {"target": "UniProt Q8CFA2", "log2 fold change of pooled soluble protein": 0.137},
      {"target": "UniProt Q8BRF7", "log2 fold change of pooled soluble protein": -0.0182},
      {"target": "UniProt Q8C165", "log2 fold change of pooled soluble protein": -0.00242},
      {"target": "UniProt Q8BVI4", "log2 fold change of pooled soluble protein": -0.0974},
      {"target": "UniProt Q8C7H1", "log2 fold change of pooled soluble protein": -0.272},
      {"target": "UniProt Q8BIP0", "log2 fold change of pooled soluble protein": -0.227},
      {"target": "UniProt Q8BIQ5", "log2 fold change of pooled soluble protein": 0.146},
      {"target": "UniProt Q8C0J2", "log2 fold change of pooled soluble protein": 0.194},
      {"target": "UniProt Q8C0I1", "log2 fold change of pooled soluble protein": 0.0483},
      {"target": "UniProt Q8BLN5", "log2 fold change of pooled soluble protein": -0.0486},
      {"target": "UniProt Q8BJY1", "log2 fold change of pooled soluble protein": -0.0596}
    ]}
  ]
}
